At least one read-out could not be matched to a standard name with certainty. For at least one compound, name, drawing or mass did not settle the structure.
Test system: human ventricular cardiac tissue strips (hvCTS)
Experiment: hvCTS drug screening: twitch force under electrical pacing
Format: cell-based
Conditions: blinded screening
Method: One of ordinary skill in the art will recognize that the gels can be formed in any of a variety of sizes and shapes, and the molds used to form such gels can also be formed in any of a variety of sizes and shapes, depending on the intended use of the molded gel. The molded mixtures were then bathed with culture medium (DMEM supplemented with 10% newborn calf serum), and maintained in culture with daily half-medium exchanges. Inserts in the casting molds were removed at 48 hours, yielding a self-assembled hvCTS held between 0.5-mm-diameter circular PDMS posts at each end. It is apparent that the posts can be formed from any flexible material amenable to at least one form of sterilization are suitable. As noted above, the whole mold can be scaled up or down depending on the application, and the posts can also be scaled up or down. In general, the height of the posts would be similar to the height of a well (e.g., about 6 mm in an exemplary embodiment). Any of a wide variety of cross-sectional shapes is contemplated as being suitable for use in the system, apparatus and methods according to the disclosure. At 7 days after hvCTS creation, the hvCTS were used for drug screening.
Initially, pharmacological compounds were prepared for screening. Compounds for unblinded “open label” screening were purchased from Sigma and stock solutions at the highest possible concentrations were prepared according to the product information. Working concentrations over a 5-logarithmic range were prepared for each drug.
Working concentrations over a 5-logarithmic range were prepared for each drug according to the dose-range recommendation provided by the supplier.
New born calf serum containing medium was replaced with DMEM high glucose with HEPES without phenol red for optical measurement of generated force in hvCTS. […] The integrated flexible PDMS posts were used as force sensors, with the post deflection captured in real-time with a high-speed camera (100 frames/s) and LabView software (National Instruments, Austin, Tex., USA), applying a beam-bending equation from elasticity theory to calculate twitch force, as described previously^[2] and incorporated herein by reference. These measurements were obtained with the hvCTS maintained in the original molds where they were created with the hvCTS bathed in culture medium at 37° C. For each drug, force generated in response to 9 doses were measured with the drugs added to the hvCTS at half log increments in a cumulative manner. For each dose, the force generated at 0 Hz, 0.5 Hz, 1 Hz, 1.5 Hz and 2 Hz electrical pacing with field electrodes were measured.
Data analysis. Data were calculated and analyzed by a customized MatLab program. Force frequency curves for each drug were generated by plotting the generated force at 0.5 Hz, 1 Hz, 1.5 Hz and 2 Hz at different concentrations. All forces were normalized to the generated force at 0.5 Hz at the drug-free baseline condition (100%).
[…] The force generated under drug-free baseline condition was defined as 100%. The force generated at each drug concentration was then normalized to the generated force under the cognate drug-free baseline condition. The EC50 of each tested drug was estimated by fitting to a four-parameter dose-response equation given as: Y=Bottom+(Top-Bottom)/(1+10^((Log EC^50^−X)*HillSlope)), using commercial software (GraphPad Software Inc.). […] Hill Slope quantifies the steepness of the dose-response curve (the higher the Hill Slope, the steeper the curve).

| Structure (SMILES) | -log EC50 in hvCTS (EC50 in brackets), result in words | effect on developed contractile force / contractility (Example 4) |
| --- | --- | --- |
| CC[C@H](C)C(=O)O[C@H]1C[C@H](O)C=C2C=C[C@H](C)[C@H](CC[C@@H](O)C[C@@H](O)CC(=O)O)[C@H]21 [Pravastatin] | No effect | did not show any dose-dependent effect on contractility |
| CC(=O)Oc1ccccc1C(=O)O [Aspirin] | No effect |  |
| CCOC(=O)[C@H](CCc1ccccc1)N[C@@H](C)C(=O)N1[C@H](C(=O)O)C[C@@H]2CCC[C@@H]21 [Ramipril] | No effect |  |
| NCCCC[C@H](N[C@@H](CCc1ccccc1)C(=O)O)C(=O)N1CCC[C@H]1C(=O)O [Lisinopril] | No effect |  |

Reference: patent US20200369996A1, “Bioreactor Screening Platform for Modelling Human Systems Biology and for Screening for Inotropic Effects of Agents on the Heart” (NOVOHEART LIMITED, priority 2017, published 2020)
